For the assay, the target named is T1, PIR (bait of the immunoprecipitation and mass spectrometry screen) (UniProt O00625).
T1 sequence: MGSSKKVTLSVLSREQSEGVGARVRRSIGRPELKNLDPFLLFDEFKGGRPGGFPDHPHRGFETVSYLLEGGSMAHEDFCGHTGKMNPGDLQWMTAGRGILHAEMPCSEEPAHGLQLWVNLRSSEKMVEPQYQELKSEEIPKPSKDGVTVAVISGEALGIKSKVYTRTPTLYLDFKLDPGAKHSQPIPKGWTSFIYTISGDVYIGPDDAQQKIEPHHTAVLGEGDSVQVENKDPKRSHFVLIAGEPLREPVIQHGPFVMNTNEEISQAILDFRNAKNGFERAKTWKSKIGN
Briefly: affinity purification with mass spectrometry; previous screening: immunoprecipitation of PIR followed by mass spectrometry; cells not given.

Chains of the proteins cited; added tags and fusions are not shown. Residues count along the entry.
UniProt P25445, residues 26-335: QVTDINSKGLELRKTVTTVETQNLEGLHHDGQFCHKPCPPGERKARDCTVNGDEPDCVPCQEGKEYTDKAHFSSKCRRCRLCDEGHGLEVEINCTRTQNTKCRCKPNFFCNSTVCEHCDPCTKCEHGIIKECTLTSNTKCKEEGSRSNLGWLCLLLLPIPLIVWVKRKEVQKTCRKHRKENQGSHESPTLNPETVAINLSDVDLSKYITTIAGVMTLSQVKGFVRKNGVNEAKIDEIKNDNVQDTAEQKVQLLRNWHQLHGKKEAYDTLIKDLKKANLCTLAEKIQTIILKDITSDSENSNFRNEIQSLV

Results are given in words; binding and its absence hold for the method and conditions named. Binding seen in cells or lysates may run through a third protein. Here binding means that the protein was enriched with, or labelled near, the bait; the list need not be complete.

For the substance “FAS (hit of the immunoprecipitation and mass spectrometry screen) (from UniProt P25445 26-335) (receptor)”, the binding result is recorded as “binds”.

The values are drawn from PMC10933653.
